The text below walks through data of PMC4770211.

The target of test [1] is T1, AtMed4, full length, yeast two-hybrid bait (Arabidopsis) (UniProt Q9LZ00).
T1 sequence: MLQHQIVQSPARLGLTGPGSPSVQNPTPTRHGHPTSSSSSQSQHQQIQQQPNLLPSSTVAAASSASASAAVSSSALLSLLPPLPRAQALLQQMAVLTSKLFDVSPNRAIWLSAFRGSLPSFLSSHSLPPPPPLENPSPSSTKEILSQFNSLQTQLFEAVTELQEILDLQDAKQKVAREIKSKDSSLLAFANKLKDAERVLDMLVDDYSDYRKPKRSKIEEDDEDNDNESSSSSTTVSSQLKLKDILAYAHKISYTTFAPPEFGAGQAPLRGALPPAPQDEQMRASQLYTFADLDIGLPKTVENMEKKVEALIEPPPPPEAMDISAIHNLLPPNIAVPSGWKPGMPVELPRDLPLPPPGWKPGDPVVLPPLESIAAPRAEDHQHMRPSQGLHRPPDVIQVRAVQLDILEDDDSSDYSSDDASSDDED
The test is described as follows: two-hybrid; Matchmaker Gold system; BD (pGBKT7) and AD (pGADT7) constructs co-transformed in yeast strain AH109, selected on SD-Trp-/Leu-, spotted at OD600 ~0.2 on SD-Trp-/Leu-/His-/Ade-; full-length subunits and deletion fragments.

Test [2] addresses AtMed7, BiFC fusion (Arabidopsis). The test is described as follows: split reporter; BiFC assay; vectors and cells not told for this pair.

No constants are given. Whether binding was seen depends on the method and setting. For some assays here: Binding seen in cells or lysates may run through a third protein. For some assays here: Binding can be weak; no strength is given. For some assays here: Where a sequence is shown, tags or fusion partners need not be part of it.

As for “AtMed7, yeast two-hybrid fusion (Arabidopsis)”, the binding result in test [1] was “no binding”.

B1: AtMed21, BiFC fusion (protein, UniProt C0LU16 1-139)
chain: MDIISQLQEQVNTIAAITFNAFGTLQRDAPPVQLSPNYPEPPATTTVTDDATPFPEQPKQLSAGLVKAAKQFDALVAALPLSEGGEGAQLKRIAELQVENDLVGQELQKQLEAAEKELKQVQELFGQAADNCLNMKKPE
Turning to B1, the binding entry in test [2] is given as “binds”.
